Measurements as given in doi:10.1101/2024.10.25.620379.
These are yes or no findings as the source states them, for the method shown. A result given as binding can be weak or reduced; the word gives no strength.

Protein sequences, listed by entry. Tags and fused reporters are not part of them. Lines headed by an entry give the natural chain unless they say otherwise; changes in a name come on top.
UniProt P61960: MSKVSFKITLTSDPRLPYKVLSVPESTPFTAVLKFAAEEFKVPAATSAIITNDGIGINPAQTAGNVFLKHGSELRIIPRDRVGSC

Biological target: T1, UBA5_(37-346), UBA5 amino acids 37-346, the functional fragment of UBA5 (human) (UniProt Q9GZZ9)
T1 sequence: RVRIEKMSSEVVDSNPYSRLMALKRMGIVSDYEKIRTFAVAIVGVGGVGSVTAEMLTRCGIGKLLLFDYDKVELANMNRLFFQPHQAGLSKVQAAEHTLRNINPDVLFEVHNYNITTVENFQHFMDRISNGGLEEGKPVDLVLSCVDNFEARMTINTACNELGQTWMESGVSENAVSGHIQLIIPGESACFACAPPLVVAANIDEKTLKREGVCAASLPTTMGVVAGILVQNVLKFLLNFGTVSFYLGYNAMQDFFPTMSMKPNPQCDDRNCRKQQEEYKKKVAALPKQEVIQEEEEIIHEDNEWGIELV
Assay: charging assay

binding: binds
Substance: ubiquitin-fold modifier 1 (UFM1) (from UniProt P61960)
